Measurements reported in patent publication US20230073007A1, “SWITCHING BINDER, PREPARATION METHOD THEREFOR, AND PHARMACEUTICAL COMPOSITION, ASSAY KIT, AND ANTIGEN AND ANTIBODY ASSAY METHOD, EACH USING SAME” (OPTOLANE TECHNOLOGIES INC., priority 2019, published 2023).
These are yes or no findings as the source states them, for the method shown.

Target: HBsAg
Assay: fluorescent peptide on immobilized protein (100 µg/mL coating)

binding, no binding (tested: 20 µM):
SYWIHWVKQRPGQGLEWIGE (fluorescence-labeled in the fluorescence assays (dye and position not stated)) [switching binder of SEQ ID NO. 1 (H1)]
VYYCFQGSHVPFTK (fluorescence-labeled in the fluorescence assays (dye and position not stated)) [switching binder of SEQ ID NO. 4 (L2)]
VYYCAREPTGTGIYFDVWGK (fluorescence-labeled in the fluorescence assays (dye and position not stated)) [switching binder of SEQ ID NO. 2 (H2)]
TYLEWYPQKPGQSPKLLIYK (fluorescence-labeled in the fluorescence assays (dye and position not stated)) [switching binder of SEQ ID NO. 3 (L1)]

Target: HBsAg
Assay: fluorescence of labelled peptide (20 µM) on protein coated at 100 µg/mL on a solid support

binding, no binding (tested: 20 µM):
SYWIHWVKQRPGQGLEWIGE (fluorescence-labeled in the fluorescence assays (dye and position not stated)) [switching binder of SEQ ID NO. 1 (H1)]
VYYCFQGSHVPFTK (fluorescence-labeled in the fluorescence assays (dye and position not stated)) [switching binder of SEQ ID NO. 4 (L2)]
VYYCAREPTGTGIYFDVWGK (fluorescence-labeled in the fluorescence assays (dye and position not stated)) [switching binder of SEQ ID NO. 2 (H2)]
TYLEWYPQKPGQSPKLLIYK (fluorescence-labeled in the fluorescence assays (dye and position not stated)) [switching binder of SEQ ID NO. 3 (L1)]
